Experimental findings from PubChem BioAssay AID2685 (National Center for Advancing Translational Sciences (NCATS), 2010) are described below.

The nature of the experiment: qHTS Assay for Lipid Storage Modulators in Drosophila S3 Cells.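 As to cell number change: cells counted by Cell Tracker Red CMTPX staining in the red channel.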 Particulars: BODIPY lipid droplet fluorescence, 18-24 h; for cell number change: measured here: cell count max response, cells fed with added oleic acid. Summed up:
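Drosophila S3 cells loaded with oleic acid (400 uM, as added) and compounds at several concentrations; lipid droplets imaged by 488-nm laser-scanning cytometry, 500–530 nm intensity and object ratio to cell channel. Percent activity normalized to 20 uM Triacsin C.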

[1] abbreviates: measured here: lipid fluorescence (Fed channel) AC50, cells fed with added oleic acid.
Where [2] appears, read: measured here: cell number channel AC50, cells fed with added oleic acid.

This is one part of the list. The main result of the screen is listed elsewhere. These columns were measured beside it and carry no call. Compounds called inactive in the main read-out are mostly missing here. Words in brackets tell the shape of the fitted curve; partial curves, single points and poor fits give uncertain potencies.

As usually defined, the AC50 is the concentration giving half of the maximal activity seen. Consider `Cc1noc2nc(-c3cccs3)cc(-c3nnc4n3CCCCC4)c12`, for which the cell number change turned out to be 0.692%. Besides, under setting [1], the AC50 is 6.51 µM [falling, single point]. In the case of `COc1ccc(CNC(=O)CN(C)Cc2ccccc2F)cc1OC`, the AC50 under setting [2] is 0.13 µM [rising, full curve, poor fit]. Turning to `CC(=O)N(C(C)=O)c1c(N2CCOCC2)c2ccccc2oc1=O`, the cell number change was -13%. Further, under setting [2], the AC50 is 3.66 µM [falling, single point]. With `S=C(NC1CCCCC1)NN1CCOCC1`, the cell number change was -13.9%. Besides, under setting [2], the AC50 was 0.082 µM [rising, full curve, poor fit]. On to `COC(=O)CN1C(=O)[C@H]2[C@@H](C3CC3)N3C(=O)CN(Cc4ccccn4)C(=O)[C@@]3(Cc3ccccc3)[C@H]2C1=O`, for which the cell number change is -9.88%.

As for `CC(=O)Nc1ccc(S(=O)(=O)NCCC(=O)OCc2ccccc2F)cc1`, the cell number change is -7.39%. Moreover, the half-maximal activity concentration (AC50) under setting [1] was 29.1 µM [falling, single point]. Regarding `COc1ccccc1CN(C)C(=O)c1ccc(S(=O)(=O)NCc2ccco2)cc1`, the cell number change was found to be 11.6%. Further, the AC50 under setting [1] is 0.326 µM [rising, full curve].

As to `O=C(CSc1ncnc2c1cnn2CCc1ccccc1)Nc1cccc(C(F)(F)F)c1`, the cell number change is 17.6%. Besides, the AC50 under setting [1] is 3.26 µM [rising, partial curve]. `CCOC(=O)C1=C(C)N2C(=C(C#N)[C@@H]1c1ccc(C(=O)OC)cc1)SC[C@@]2(O)C(C)(C)C`: the cell number change was determined as 7.18%. Moreover, under setting [1], the AC50 is 0.164 µM [rising, full curve, poor fit]. Take `Cc1ccc2c(c1)NCC(C(=O)NC1CCCCC1)O2` (centres undefined): the cell number change was 2.08%. In addition, the AC50 under setting [2] was 3.66 µM [rising, single point].

Take `COc1ccc(-c2nnc3ccc(SCC(=O)N4CCCCC4)nn23)cc1OC`: the AC50 under setting [1] was 6.51 µM [rising, single point]. In the case of `O=C(CCS(=O)(=O)c1ccc(Cl)cc1)NCCC1=CCCCC1`, the cell number change came to 19.9%. In addition, under setting [1], the AC50 is 0.631 µM [rising, full curve, poor fit].

`CCN(CC(=O)NC)S(=O)(=O)c1ccc(Br)cc1`: the cell number change is -24.4%. Moreover, the AC50 under setting [2] is 0.00461 µM [falling, full curve, poor fit]. Further, the AC50 under setting [1] was 0.651 µM [falling, full curve, poor fit]. For `CC(C)(C)OC(=O)N[C@@H](Cc1ccccc1)c1nnc(SCC(=O)c2ccc(Cl)cc2)o1`, the cell number change was found to be 14.3%.

On to `C/C(CCN1CCc2nc(-c3ccccc3)c(-c3ccccc3)cc2C1)=N\OC[C@@H](C)[C@H](OCc1ccccc1)C(C)C`, for which the cell number change was -9.25%. The AC50 under setting [1] was 18.4 µM [rising, partial curve]. `COc1ccc(NC(=S)N(CCC(C)C)C2CCN(C(C)=O)CC2)cc1`: the cell number change is -15.6%. Further, the AC50 under setting [1] is 0.092 µM [falling, full curve, poor fit]. With `CC(=O)c1ccc(C(=O)NC2CCCN(Cc3ccccc3F)C2)cc1` (centres undefined), the cell number change stood at 10.3%.

Consider `Cc1ccccc1OCCC(=O)OCC(=O)Nc1c(F)cccc1F`, for which the cell number change was -15.5%. Regarding `COc1cc(CN2CCCC(C(=O)Nc3cccc(-n4cccn4)c3)C2)ccc1F` (centres undefined), the cell number change was -6.45%. Under setting [1], the AC50 is 10.3 µM [falling, partial curve, poor fit]. Turning to `COc1cccc(C(C)N(C)Cc2nc(COc3ccccc3)no2)c1` (centres undefined), the cell number change came out at 30.5%. Besides, under setting [2], the AC50 is 4.11 µM [rising, full curve].

For the molecule `N#Cc1ccc(-c2cn(-c3ccccc3)c3[n+]2CCCS3)cc1`, the cell number change is -25.3%. In addition, the AC50 under setting [2] was 0.58 µM [falling, full curve, poor fit]. In addition, under setting [1], the AC50 is 20.6 µM [falling, single point]. In the case of `Cc1oc2cc3oc(=O)c(CC(=O)N[C@@H](C)C(=O)NC(Cc4ccc(Cl)cc4)C(=O)O)c(C)c3cc2c1C` (some centres undefined), the cell number change is -24.3%. Further, the AC50 under setting [1] was 0.184 µM [falling, full curve, poor fit].

With `COc1cc(CNC(=O)c2cccc(COc3ccc(Cl)cc3)c2)cc(OC)c1`, the cell number change is -8.55%. As for `CC(=O)Nc1c([N+](=O)[O-])cc2[nH]c(=O)[nH]c2c1[N+](=O)[O-]`, the cell number change is -5.91%. With `CN(CCOc1ccc(Cl)cc1)CC(O)c1ccccc1` (centres undefined), the AC50 under setting [1] is 6.51 µM [falling, single point]. Still for that read-out and setting: in the case of `Cc1cccc(C(=O)Nc2cccc(C(=O)NC3CCCC3)c2)c1` it was 6.51 µM [falling, single point]. For `O=C(NC1CC1)C1=C[C@@H](c2c[nH]c3ccccc23)C[C@@H](OCCCCO)O1`, the cell number change is -7.76%. Moreover, the half-maximal activity concentration (AC50) under setting [1] is 32.6 µM [falling, partial curve]. `Cn1c(SCC(=O)NNC(=S)Nc2ccccc2)nnc1-c1ccncc1`: the cell number change is -1.2%. For the same molecule, under setting [1], the half-maximal activity concentration (AC50) is 6.51 µM [falling, single point]. `O=C(O)c1ccccc1NSc1ccccc1[N+](=O)[O-]`: the cell number change is 10.7%. Moreover, the AC50 under setting [1] is 6.51 µM [falling, single point]. Consider `O=C(c1cccc(F)c1)N1CCN(C(=O)C(c2ccccc2)c2ccccc2)CC1`, for which the cell number change was found to be 7.39%. Further, under setting [1], the AC50 is 2.91 µM [rising, single point]. With `Cc1cnc(C(=O)OCC(=O)N2c3ccccc3CC2C)cn1` (centres undefined), the cell number change was found to be 29.9%. Take `O=C(COC(=O)CC12CC3CC(CC(C3)C1)C2)Nc1cccnc1Cl`: the cell number change was -7.98%. Take `CC(C)(C)c1ccc(OCCC(=O)NCCc2ccc(S(N)(=O)=O)cc2)cc1`: the cell number change was -0.54%. Moreover, the AC50 under setting [1] was 2.06 µM [falling, partial curve]. Regarding `CCCCOCCCNC(=O)N[C@H](C(=O)O)C(C)CC` (some centres undefined), the cell number change is -50.2%. Also, the AC50 under setting [2] was 20.6 µM [falling, partial curve, poor fit]. As to `CCc1ccc(OCC(=O)N/N=C(\C)c2ccc(OC(F)F)cc2)cc1`, the cell number change was -16.7%. The AC50 under setting [1] is 6.51 µM [rising, single point].

For `Cc1nnc(SCC(=O)NNC(=O)c2ccco2)s1`, the cell number change was -38.6%. The AC50 under setting [2] was 36.6 µM [falling, partial curve, poor fit]. Regarding `Cc1nnsc1C(=O)Nc1ccc(S(=O)(=O)N2CCCCC2C)cc1` (centres undefined), the cell number change was -1.53%. Under setting [1], the AC50 is 3.26 µM [rising, single point]. Regarding `O=C(NC1CCCC1)c1cccc(Cl)c1`, the cell number change is 16.2%. For the same molecule, under setting [1], the half-maximal activity concentration (AC50) was 0.731 µM [rising, full curve, poor fit]. Consider `CCOC(=O)c1cnc(SCC(=O)N2CCC(C(N)=O)CC2)nc1N`, for which the cell number change is 3.92%. Besides, under setting [1], the AC50 is 29.1 µM [rising, single point]. Take `COc1ccc([N+](=O)[O-])cc1NS(=O)(=O)c1ccc(Cl)c(C(=O)Nc2sc3c(c2C#N)CCCCC3)c1`: the AC50 under setting [1] was 0.13 µM [falling, full curve, poor fit].
